Experimental data published in patent publication US20080090749A1 (priority 2005, published 2008).

Experiments:
Body weight, Example 2 = assay type: in vivo, Wistar rats; settings: group mean, 8 rats; 1.5 g per kg oral
Body weight, Example 3 = assay type: in vivo, Wistar rats

For Cl.N[C@@H](Cc1c[nH]cn1)C(=O)O [Histidine, L-histidine hydrochloride], the “Body weight, Mean” value (Body weight, Example 2) was 246.7, the “Body weight, Mean” value (Body weight, Example 3; group mean, 8 rats, 1.5 g per kg oral) was 257.8 and the Body weight (Body weight, Example 3; individual rats, L-histidine hydrochloride 1.5 g per kg oral, hydrochloride) was 246.7 and 242.1 and 246.8 and 250 and 252.7 and 253.9 and 257.9 and 261.5.

Several values for one entry are separate records, joined by “and”; a condition that tells them apart may be missing. Equal entries are not always repeated. A unit is not stated for every read-out.
